From article doi:10.1101/2022.03.29.486232
These are yes or no findings as the source states them, for the method shown. Binding seen in cells or lysates may run through a third protein. Here binding means that the protein was enriched with, or labelled near, the bait; the list need not be complete.

Protein sequences, listed by entry. Tags and fused reporters are not part of them. Lines headed by an entry give the natural chain unless they say otherwise; changes in a name come on top. Residues count along the entry.
UniProt Q9DC28: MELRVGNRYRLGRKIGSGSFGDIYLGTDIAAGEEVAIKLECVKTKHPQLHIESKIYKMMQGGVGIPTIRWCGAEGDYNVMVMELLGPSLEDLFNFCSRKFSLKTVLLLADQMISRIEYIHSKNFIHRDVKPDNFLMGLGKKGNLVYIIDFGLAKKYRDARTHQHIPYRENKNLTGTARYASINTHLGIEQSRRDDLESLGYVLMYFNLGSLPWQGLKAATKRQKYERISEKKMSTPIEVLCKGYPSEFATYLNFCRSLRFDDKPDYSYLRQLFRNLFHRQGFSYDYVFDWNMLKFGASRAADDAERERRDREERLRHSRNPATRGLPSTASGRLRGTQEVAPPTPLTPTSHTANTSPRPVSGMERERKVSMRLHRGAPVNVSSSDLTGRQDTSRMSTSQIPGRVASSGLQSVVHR
UniProt P46096: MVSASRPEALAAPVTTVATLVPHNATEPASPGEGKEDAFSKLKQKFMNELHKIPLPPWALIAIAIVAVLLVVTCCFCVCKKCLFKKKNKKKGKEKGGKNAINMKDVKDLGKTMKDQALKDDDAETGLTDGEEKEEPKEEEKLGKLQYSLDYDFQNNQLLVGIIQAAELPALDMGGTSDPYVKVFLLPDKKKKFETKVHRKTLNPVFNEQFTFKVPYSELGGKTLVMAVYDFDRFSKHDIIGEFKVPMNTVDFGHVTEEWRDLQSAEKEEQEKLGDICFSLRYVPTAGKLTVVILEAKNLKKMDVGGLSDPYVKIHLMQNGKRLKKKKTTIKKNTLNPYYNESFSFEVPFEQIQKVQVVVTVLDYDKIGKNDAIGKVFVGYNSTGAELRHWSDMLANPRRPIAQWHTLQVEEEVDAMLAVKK
UniProt P47708: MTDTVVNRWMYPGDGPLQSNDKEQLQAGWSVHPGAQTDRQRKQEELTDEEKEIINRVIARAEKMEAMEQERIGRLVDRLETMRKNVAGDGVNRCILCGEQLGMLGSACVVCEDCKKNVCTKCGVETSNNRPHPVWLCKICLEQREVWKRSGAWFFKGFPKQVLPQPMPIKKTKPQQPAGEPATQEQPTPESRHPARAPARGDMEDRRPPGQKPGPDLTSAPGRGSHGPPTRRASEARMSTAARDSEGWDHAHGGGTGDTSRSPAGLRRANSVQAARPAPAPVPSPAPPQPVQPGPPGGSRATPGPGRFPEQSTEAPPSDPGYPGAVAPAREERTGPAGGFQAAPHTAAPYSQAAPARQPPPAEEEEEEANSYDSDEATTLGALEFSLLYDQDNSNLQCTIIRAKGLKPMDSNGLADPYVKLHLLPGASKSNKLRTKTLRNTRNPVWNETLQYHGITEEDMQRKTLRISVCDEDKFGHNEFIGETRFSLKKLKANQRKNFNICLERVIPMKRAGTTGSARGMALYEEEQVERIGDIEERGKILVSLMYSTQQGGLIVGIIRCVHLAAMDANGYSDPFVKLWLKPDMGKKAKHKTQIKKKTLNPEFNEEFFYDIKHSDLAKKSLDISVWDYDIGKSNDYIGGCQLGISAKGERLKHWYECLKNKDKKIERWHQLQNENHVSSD
UniProt Q7TQD2: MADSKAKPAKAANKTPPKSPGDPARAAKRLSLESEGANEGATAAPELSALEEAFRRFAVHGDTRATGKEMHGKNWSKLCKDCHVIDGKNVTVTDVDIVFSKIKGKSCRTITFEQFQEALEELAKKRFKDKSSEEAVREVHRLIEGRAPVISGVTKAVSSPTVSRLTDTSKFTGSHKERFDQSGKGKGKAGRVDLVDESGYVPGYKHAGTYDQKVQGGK
UniProt Q61423: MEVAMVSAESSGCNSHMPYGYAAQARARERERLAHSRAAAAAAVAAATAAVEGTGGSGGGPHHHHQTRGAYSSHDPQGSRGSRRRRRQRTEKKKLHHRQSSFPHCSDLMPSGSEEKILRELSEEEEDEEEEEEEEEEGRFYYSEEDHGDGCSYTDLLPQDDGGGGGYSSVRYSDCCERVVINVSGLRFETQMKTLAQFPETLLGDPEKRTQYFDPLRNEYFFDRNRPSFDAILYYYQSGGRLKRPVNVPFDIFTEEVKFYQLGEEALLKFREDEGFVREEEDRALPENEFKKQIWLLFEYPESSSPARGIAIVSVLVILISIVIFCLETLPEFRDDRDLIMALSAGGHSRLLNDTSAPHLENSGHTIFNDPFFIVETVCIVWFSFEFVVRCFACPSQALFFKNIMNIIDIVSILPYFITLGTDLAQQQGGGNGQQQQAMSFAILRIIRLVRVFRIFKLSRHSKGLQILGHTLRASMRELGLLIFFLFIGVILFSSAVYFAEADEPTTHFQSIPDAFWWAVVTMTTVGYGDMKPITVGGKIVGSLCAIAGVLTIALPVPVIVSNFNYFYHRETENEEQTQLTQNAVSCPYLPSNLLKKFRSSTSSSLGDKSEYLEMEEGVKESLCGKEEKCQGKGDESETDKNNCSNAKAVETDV
UniProt P16388: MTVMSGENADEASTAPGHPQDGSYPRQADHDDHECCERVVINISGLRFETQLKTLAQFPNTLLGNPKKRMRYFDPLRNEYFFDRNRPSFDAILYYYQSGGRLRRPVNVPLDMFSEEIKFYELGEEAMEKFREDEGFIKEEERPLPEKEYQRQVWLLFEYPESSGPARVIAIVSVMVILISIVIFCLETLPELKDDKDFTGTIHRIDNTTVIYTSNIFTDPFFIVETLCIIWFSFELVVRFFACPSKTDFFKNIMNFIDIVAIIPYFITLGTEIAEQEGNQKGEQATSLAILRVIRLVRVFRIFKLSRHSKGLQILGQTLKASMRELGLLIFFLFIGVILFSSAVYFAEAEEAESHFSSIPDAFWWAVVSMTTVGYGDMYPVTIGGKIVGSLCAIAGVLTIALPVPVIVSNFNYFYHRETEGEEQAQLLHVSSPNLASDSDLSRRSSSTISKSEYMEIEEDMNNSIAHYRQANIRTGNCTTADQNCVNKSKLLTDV
UniProt P06837: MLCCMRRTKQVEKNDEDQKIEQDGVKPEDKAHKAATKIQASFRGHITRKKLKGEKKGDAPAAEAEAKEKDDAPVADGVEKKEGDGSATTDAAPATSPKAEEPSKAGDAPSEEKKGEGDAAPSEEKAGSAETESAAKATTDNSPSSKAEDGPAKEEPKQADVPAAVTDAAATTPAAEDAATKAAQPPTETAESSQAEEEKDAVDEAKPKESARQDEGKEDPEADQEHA
UniProt P56480, residues 47-529: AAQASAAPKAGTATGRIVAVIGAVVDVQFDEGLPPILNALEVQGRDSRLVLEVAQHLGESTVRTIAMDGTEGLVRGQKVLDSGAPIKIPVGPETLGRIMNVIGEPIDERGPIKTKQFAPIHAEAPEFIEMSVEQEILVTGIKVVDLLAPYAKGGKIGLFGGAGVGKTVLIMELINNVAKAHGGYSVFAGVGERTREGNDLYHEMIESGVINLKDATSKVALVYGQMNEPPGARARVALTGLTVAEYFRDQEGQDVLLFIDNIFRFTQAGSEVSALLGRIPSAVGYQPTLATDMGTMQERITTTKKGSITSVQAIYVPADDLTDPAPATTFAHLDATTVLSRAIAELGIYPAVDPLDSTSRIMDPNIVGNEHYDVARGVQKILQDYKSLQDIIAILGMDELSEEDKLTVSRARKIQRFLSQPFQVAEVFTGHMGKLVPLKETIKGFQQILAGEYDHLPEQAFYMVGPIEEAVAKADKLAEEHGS
UniProt Q9R0K7: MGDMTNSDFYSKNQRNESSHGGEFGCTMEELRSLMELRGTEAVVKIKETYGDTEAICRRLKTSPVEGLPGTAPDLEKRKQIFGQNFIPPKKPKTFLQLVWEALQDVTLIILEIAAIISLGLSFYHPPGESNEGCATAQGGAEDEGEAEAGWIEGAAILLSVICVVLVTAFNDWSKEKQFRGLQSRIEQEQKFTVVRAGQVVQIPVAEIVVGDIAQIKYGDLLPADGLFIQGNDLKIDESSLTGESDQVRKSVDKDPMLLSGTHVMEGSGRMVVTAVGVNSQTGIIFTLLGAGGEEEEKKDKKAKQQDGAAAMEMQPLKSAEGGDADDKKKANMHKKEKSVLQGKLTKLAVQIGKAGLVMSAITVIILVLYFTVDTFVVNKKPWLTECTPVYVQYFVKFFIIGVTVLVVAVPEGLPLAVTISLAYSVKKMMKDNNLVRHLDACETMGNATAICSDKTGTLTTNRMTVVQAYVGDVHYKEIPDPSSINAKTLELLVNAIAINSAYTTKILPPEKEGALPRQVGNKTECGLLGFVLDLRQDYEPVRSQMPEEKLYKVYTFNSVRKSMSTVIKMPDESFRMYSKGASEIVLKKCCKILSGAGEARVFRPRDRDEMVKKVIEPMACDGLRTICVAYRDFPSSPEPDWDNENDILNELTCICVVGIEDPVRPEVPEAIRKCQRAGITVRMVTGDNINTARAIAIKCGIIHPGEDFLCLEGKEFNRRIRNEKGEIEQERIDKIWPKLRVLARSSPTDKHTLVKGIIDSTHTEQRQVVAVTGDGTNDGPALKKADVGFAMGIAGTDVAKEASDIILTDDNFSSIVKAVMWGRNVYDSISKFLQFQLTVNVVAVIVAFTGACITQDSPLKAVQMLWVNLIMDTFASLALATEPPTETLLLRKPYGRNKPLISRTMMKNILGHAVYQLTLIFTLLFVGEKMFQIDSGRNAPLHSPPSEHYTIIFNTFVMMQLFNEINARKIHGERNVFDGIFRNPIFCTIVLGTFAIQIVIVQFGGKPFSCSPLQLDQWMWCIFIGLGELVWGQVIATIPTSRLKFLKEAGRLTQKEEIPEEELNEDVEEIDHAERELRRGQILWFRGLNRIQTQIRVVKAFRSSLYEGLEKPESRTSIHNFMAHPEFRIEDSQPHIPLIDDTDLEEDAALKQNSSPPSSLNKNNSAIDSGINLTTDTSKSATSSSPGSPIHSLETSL
UniProt P60761: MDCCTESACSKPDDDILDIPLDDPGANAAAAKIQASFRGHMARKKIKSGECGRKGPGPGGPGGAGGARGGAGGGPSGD
UniProt Q61923: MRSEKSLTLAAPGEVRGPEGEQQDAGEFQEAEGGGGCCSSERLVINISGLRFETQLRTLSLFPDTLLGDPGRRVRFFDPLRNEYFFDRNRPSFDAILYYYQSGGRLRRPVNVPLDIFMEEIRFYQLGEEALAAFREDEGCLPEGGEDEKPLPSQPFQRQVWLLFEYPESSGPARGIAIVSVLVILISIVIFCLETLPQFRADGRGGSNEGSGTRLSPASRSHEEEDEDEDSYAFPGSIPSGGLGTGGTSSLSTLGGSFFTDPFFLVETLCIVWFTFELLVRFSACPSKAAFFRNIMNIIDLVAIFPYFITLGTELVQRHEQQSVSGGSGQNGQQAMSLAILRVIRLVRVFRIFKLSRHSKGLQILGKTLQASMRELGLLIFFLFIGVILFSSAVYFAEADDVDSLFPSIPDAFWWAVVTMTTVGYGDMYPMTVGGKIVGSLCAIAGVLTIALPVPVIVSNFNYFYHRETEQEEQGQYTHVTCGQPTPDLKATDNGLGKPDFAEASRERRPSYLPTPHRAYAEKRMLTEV
UniProt P24369, residues 34-216: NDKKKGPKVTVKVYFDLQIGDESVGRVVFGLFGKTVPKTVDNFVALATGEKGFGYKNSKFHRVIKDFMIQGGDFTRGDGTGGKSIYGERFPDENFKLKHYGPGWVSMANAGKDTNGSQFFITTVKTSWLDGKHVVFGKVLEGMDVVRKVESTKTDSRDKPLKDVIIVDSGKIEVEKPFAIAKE

T1: leucine-rich glioma-inactivated 1 (LGI1), native, from mouse brain (mouse (endogenous in mouse brain)) (UniProt Q9JIA1)
T1 sequence: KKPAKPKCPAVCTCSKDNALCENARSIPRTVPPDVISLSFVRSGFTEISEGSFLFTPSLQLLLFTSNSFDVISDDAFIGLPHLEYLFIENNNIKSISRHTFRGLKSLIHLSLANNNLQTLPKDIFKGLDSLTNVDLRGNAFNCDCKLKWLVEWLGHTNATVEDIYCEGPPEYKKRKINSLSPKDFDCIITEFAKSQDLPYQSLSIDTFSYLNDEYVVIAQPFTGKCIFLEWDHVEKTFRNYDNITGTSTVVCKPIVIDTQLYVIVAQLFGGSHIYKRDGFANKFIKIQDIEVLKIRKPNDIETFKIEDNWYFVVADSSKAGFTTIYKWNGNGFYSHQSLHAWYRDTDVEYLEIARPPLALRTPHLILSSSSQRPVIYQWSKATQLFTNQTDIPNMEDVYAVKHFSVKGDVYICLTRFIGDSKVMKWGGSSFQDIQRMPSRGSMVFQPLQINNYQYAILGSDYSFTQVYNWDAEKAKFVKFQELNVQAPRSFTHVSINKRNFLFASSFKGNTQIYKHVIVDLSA


target: T1, leucine-rich glioma-inactivated 1 (LGI1), native, from mouse brain (mouse (endogenous in mouse brain)); test: affinity purification with mass spectrometry

binding | Molecule
binds | casein kinase 1δ (from UniProt Q9DC28 1-415) (enzyme)
binds | Kv1.2 subunit (from UniProt P63141 1-499)
binds | synaptic vesicle glycoprotein 2A (SV2A) (from UniProt Q9JIS5 1-742)
binds | synaptotagmin1 (from UniProt P46096 1-421)
binds | excitatory amino acid transporter EAA2 (GLT-1) (from UniProt P43006 1-572)
binds | mitochondrial creatine kinase KCRU (from UniProt P30275 40-418) (enzyme)
binds | rabphilin-3A (from UniProt P47708 1-681)
binds | PKCγ (KPCG) (from UniProt P63318 1-697) (enzyme)
binds | annexin 2 (ANXA2) (from UniProt P07356 1-339)
binds | tubulin polymerization-promoting protein (TPPP) (from UniProt Q7TQD2 1-218)
binds | Kv1.4 subunit (from UniProt Q61423 1-654)
binds | SAP97 (from UniProt Q811D0 1-905)
binds | Kv1.1 subunit (from UniProt P16388 1-495)
binds | neuromodulin (GAP43) (from UniProt P06837 1-227)
binds | ATP synthase β subunit of the mitochondrial ATP synthase (from UniProt P56480 47-529)
binds | casein kinase 1ε (from UniProt Q9JMK2 1-416) (enzyme)
binds weakly | plasma membrane calcium-transporting ATPase2 (AT2B2) (from UniProt Q9R0K7 1-1198)
binds | neurogranin (from UniProt P60761 1-78)
binds | Kv1.6 subunit (from UniProt Q61923 1-529)
binds | peptidyl-prolyl cis-trans isomerase B (PPIB) (from UniProt P24369 34-216) (enzyme)
binds | Lin7A (Veli1) (protein, UniProt Q8JZS0 1-233) MLKPSVTSAPTADMATLTVVQPLTLDRDVARAIELLEKLQESGEVPVHKLQSLKKVLQSEFCTAIREVYQYMHETITVNGCPEFRARATAKATVAAFAASEGHSHPRVVELPKTDEGLGFNVMGGKEQNSPIYISRIIPGGVAERHGGLKRGDQLLSVNGVSVEGEHHEKAVELLKAAKDSVKLVVRYTPKVLEEMEARFEKLRTARRRQQQQLLIQQQQQQQQQQPQQNHMS
binds | SAP102 (protein, UniProt P70175 1-849) MHKHQHCCKCPECYEVTRLAALRRLEPPGYGDWQVPDPYGPSGGNGASSGYGGYSSQTLPSQAGATPTPRTKAKLIPTGRDVGPVPPKPVPGKSTPKLNGSGPGWWPECTCTNRDWYEQASPAPLLVNPEALEPSLSVNGSDGMFKYEEIVLERGNSGLGFSIAGGIDNPHVPDDPGIFITKIIPGGAAAMDGRLGVNDCVLRVNEVDVSEVVHSRAVEALKEAGPVVRLVVRRRQPPPETIMEVNLLKGPKGLGFSIAGGIGNQHIPGDNSIYITKIIEGGAAQKDGRLQIGDRLLAVNNTNLQDVRHEEAVASLKNTSDMVYLKVAKPGSIHLNDMYAPPDYASTFTALADNHISHNSSLGYLGAVESKVTYPAPPQVPPTRYSPIPRHMLAEEDFTREPRKIILHKGSTGLGFNIVGGEDGEGIFVSFILAGGPADLSGELRRGDRILSVNGVNLRNATHEQAAAALKRAGQSVTIVAQYRPEEYSRFESKIHDLREQMMNSSMSSGSGSLRTSEKRSLYVRALFDYDRTRDSCLPSQGLSFSYGDILHVINASDDEWWQARLVTPHGESEQIGVIPSKKRVEKKERARLKTVKFHARTGMIESNRDFPGLSDDYYGAKNLKGVTSNTSDSESSSKGQEDAILSYEPVTRQEIHYARPVIILGPMKDRVNDDLISEFPHKFGSCVPHTTRPRRDNEVDGQDYHFVVSREQMEKDIQDNKFIEAGQFNDNLYGTSIQSVRAVAERGKHCILDVSGNAIKRLQQAQLYPIAIFIKPKSIEALMEMNRRQTYEQANKIFDKAMKLEQEFGEYFTAIVQGDSLEEIYNKIKQIIEDQSGHYIWVPSPEKL
binds | ADAM11 (protein, UniProt Q9R1V4 230-773) QVRRGHPTVHSETKYVELIVINDHQLFEQMRQSVVLTSNFAKSVVNLADVIYKEQLNTRIVLVAMETWADGDKIQVQDDLLETLARLMVYRREGLPEPSDATHLFSGRTFQSTSSGAAYVGGICSLSRGGGVNEYGNMGAMAVTLAQTLGQNLGMMWNKHRSSAGDCKCPDIWLGCIMEDTGFYLPRKFSRCSIDEYNQFLQEGGGSCLFNKPLKLLDPPECGNGFVEAGEECDCGSVQECSRAGGNCCKKCTLTHDAMCSDGLCCRRCKYEPRGVSCREAVNECDIAETCTGDSSQCPPNLHKLDGYYCDHEQGRCYGGRCKTRDRQCQALWGHAAADRFCYEKLNVEGTERGNCGRKGSGWVQCSKQDVLCGFLLCVNISGAPRLGDLGGDISSVTFYHQGKELDCRGGHVQLADGSDLSYVEDGTACGPNMLCLDHRCLPASAFNFSTCPGSGERRICSHHGVCSNEGKCICQPDWTGKDCSIHNPLPTSPPTGETERYKGPSGTNIIIGSIAGAVLVAAIVLGGTGWGFKNIRRGRSGGA
binds | contactin 1 (CNTN1) (protein, UniProt P12960 21-1001) DFTWHRRYGHGVSEEDKGFGPIFEEQPINTIYPEESLEGKVSLNCRARASPFPVYKWRMNNGDVDLTNDRYSMVGGNLVINNPDKQKDAGVYYCLASNNYGMVRSTEATLSFGYLDPFPPEERPEVKVKEGKGMVLLCDPPYHFPDDLSYRWLLNEFPVFITMDKRRFVSQTNGNLYIANVESSDRGNYSCFVSSPSITKSVFSKFIPLIPIPERTTKPYPADIVVQFKDIYTMMGQNVTLECFALGNPVPDIRWRKVLEPMPSTAEISTSGAVLKIFNIQLEDEGLYECEAENIRGKDKHQARIYVQAFPEWVEHINDTEVDIGSDLYWPCIATGKPIPTIRWLKNGYSYHKGELRLYDVTFENAGMYQCIAENAYGSIYANAELKILALAPTFEMNPMKKKILAAKGGRVIIECKPKAAPKPKFSWSKGTEWLVNSSRILIWEDGSLEINNITRNDGGIYTCFAENNRGKANSTGTLVITNPTRIILAPINADITVGENATMQCAASFDPALDLTFVWSFNGYVIDFNKEITHIHYQRNFMLDANGELLIRNAQLKHAGRYTCTAQTIVDNSSASADLVVRGPPGPPGGLRIEDIRATSVALTWSRGSDNHSPISKYTIQTKTILSDDWKDAKTDPPIIEGNMESAKAVDLIPWMEYEFRVVATNTLGTGEPSIPSNRIKTDGAAPNVAPSDVGGGGGTNRELTITWAPLSREYHYGNNFGYIVAFKPFDGEEWKKVTVTNPDTGRYVHKDETMTPSTAFQVKVKAFNNKGDGPYSLVAVINSAQDAPSEAPTEVGVKVLSSSEISVHWKHVLEKIVESYQIRYWAGHDKEAAAHRVQVTSQEYSARLENLLPDTQYFIEVGACNSAGCGPSSDVIETFTRKAPPSQPPRIISSVRSGSRYIITWDHVVALSNESTVTGYKILYRPDGQHDGKLFSTHKHSIEVPIPRDGEYVVEVRAHSDGGDGVVSQVKISGVSTLS
binds | Lin7C (Veli3) (protein, UniProt O88952 1-197) MAALGEPVRLERDICRAIELLEKLQRSGEVPPQKLQALQRVLQSEFCNAVREVYEHVYETVDISSSPEVRANATAKATVAAFAASEGHSHPRVVELPKTEEGLGFNIMGGKEQNSPIYISRIIPGGIADRHGGLKRGDQLLSVNGVSVEGEHHEKAVELLKAAQGKVKLVVRYTPKVLEEMESRFEKMRSAKRRQQT
binds | LANC2 (LanC-like protein 2) (protein, UniProt Q9JJK2 1-450) MGETMSKRLKFHLGEAEMEERSFPNPFPDYEAAASAAGLAAGSAEETGRVCPLPTTEDPGLPFHPNGKIVPNFIKRIQTKIKDLLQQMEEGLKTADPHDCSAYTGWTGIALLYLQLYRVTGDQTYLLRSLDYVKRTLRNLSGRRVTFLCGDAGPLAVGAVIYHKLKSECESQECITKLLQMHRTIVCQESELPDELLYGRAGYLYALLYLNTEIGPGTVGETAIKEVVSAIIESGKSLSREERKSERCPLLYQWHRKQYVGAAHGMAGIYYMLMQPEAKVDQETLTEMVKPSIDYVRHKKFRSGNYPSSLSNETDRLVHWCHGAPGVIHVLLQAYQVFKEEKYLKEAMECSDVIWQRGLLRKGYGICHGTSGNGYSFLSLYRLTQDKKYLYRACKFAEWCLDYGAHGCRIPDRPYSLFEGMAGAVHFLSDILVPETARFPAFELGFLQKD

Molecule | binding
syntaxin1 (mouse (endogenous in mouse brain)) | binds
